Measured values taken from patent publication US12282021B2, “Stratification of acute myeloid leukaemia patients for sensitivity to kinase pathway inhibitor therapy” (KINOMICA LIMITED, priority 2017, dated 2025).
At least one structure is not confirmed: it was looked up by name or label, or the drawing left a doubt.

Legend:
[1] = test system: AML primary cells; assay: Viability assay: ex-vivo drug testing of AML primary cells with kinase inhibitors (Guava ViaCount, 72h); type: cell-based, human; conditions: for sensitivity of M4-Like and CDs+ cases versus M1-Like and CDs− cases (cell viability): 72h, 1 μM PAKi, 10 μM FLT3/PKCi (FIG. 5A-B)
Protocol: The study was performed in 36 randomly selected primary samples of mononuclear cells extracted from the peripheral blood of AML patients at diagnosis. Experiments were performed as described below to determine the in vitro viability of the cells in response to treatment with inhibitors of the kinases FLT3/PKC (midostaurin, FLT3/PKCi), PAK (PF-3758309 PAKi), CK2 (silmitasertib CK2i) and MEK (trametinib, MEKi) The P38 inhibitor (P38i) TAK-715 was included as a negative control. Cells obtained from of 36 AML patients with well annotated clinical data were treated with these compounds for 72h.
The study was performed in 36 primary samples of mononuclear cells extracted from the peripheral blood of AML patients at diagnosis. Samples were randomly selected from the BCI tissue bank collection. Initially, 45 samples were included in the study but nine were later excluded because these were not viable in the ex-vivo experiments. Material availability allowed proteomics and mass cytometry analysis of 30 samples and DNA sequencing of 27 samples. Ex-vivo drug testing was performed in quadruplicate sampling replicates and viability values averaged and expressed relative to vehicle control.
Ex-vivo drug testing of AML primary cells was as previously described in Casado P, Rodriguez-Prados J C, Cosulich S C, et al. Kinase-substrate enrichment analysis provides insights into the heterogeneity of signaling pathway activation in leukemia cells. Sci Signal. 2013; 6(268):rs6. Briefly, cells were re-suspended in MS-5 conditioned IMDM medium, seeded in 96 well plates and treated with vehicle or 1 to 10000 nM of the indicated inhibitors for 72h. Cells were stained with Guava ViaCount reagent and cell number and viability was measured. Flow cytometry data were analyzed using CytoSoft (v2.5.7).
Mass cytometry was used to simultaneously measure the surface expression of 17 differentiation markers (CD3, CD7, CD11b, CD14, CD15, CD16, CD19, CD33, CD34, CD38, CD44, CD45, CD64, CD117, CD123, CD184, HLA-DR) in mononuclear cells extracted from the peripheral blood of 30 AML patients. Label free quantitative phosphoproteomics based on TiO2 phosphoenrichment was used to quantify>5,000 phosphorylation sites in the same AML primary samples and KSEA technology was applied to infer kinase activity from the phosphoproteomics data. Gene ontology enrichment was calculated based on the genes that code for the proteins where the phosphorylation sites were detected using DAVID software. Guava EasyCyte Flow Cytometry was used to determine cell viability after the treatment of the same patient samples with 5 kinase inhibitors (PF-3758309, Midostaurin, silmitasertib, trametinib and TAK715 aiming to target the kinases PAK, Flt-3, Casein Kinase 2, MEK and P38, respectively).

[2] = test system: AML patient samples; conditions: Pemovska et al.; cited from earlier work

Compound	sensitivity of M4-Like and CDs+ cases versus M1-Like and CDs− cases (cell viability) [1]	association of NRAS or BRAF mutations with sensitivity of the cells ([1]; 1 μM MEKi (FIG. 6C))	response of FAB-M4 cells versus FAB-M1 cells ([1]; 1 μM MEKi, FAB subtype (FIG. 1D))	NRAS/BRAF/CDs+ cases with viability>50% after treatment ([1]; cases with NRAS/BRAF mutations or CDs+ phenotype, 1 μM MEKi (FIG. 7A(viii)))	resistance of FLT3-ITD positive cells versus cells without this mutation ([1]; within the 15 NRAS/BRAF/CDs+ cases, 1 μM MEKi, p=0.012 (FIG. 7C))	AML patient samples more sensitive than mononuclear cells from healthy donors [2]
O=C(O)c1ccc2c(c1)nc(Nc1cccc(Cl)c1)c1ccncc12 [CK2i, silmitasertib]	no differences					
CC(=O)Nc1cccc(-n2c(=O)n(C3CC3)c(=O)c3c(Nc4ccc(I)cc4F)n(C)c(=O)c(C)c32)c1 [MEKi, trametinib]	more sensitive	significantly associated	responded significantly better	8 out of 15	significantly more resistant	36%
